This is one part of the list. Residues, ends and D or L forms follow the SMILES beside them. *: point of attachment. Cbz = O=C(OCc1ccccc1)*
Assays:
Test in all cases: log2 fold change, soluble protein after heating vs DMSO (PISA); higher = thermal stabilisation; K562 cells, 10 uM, 30 min; active = over 0.2 and 3.5 SD of the protein, either way, in both replicates (recomputed)
IRAK-1-4 Inhibitor I = compound: C1COCCN1CCN2C3=CC=CC=C3N=C2NC(=O)C4=CC(=CC=C4)[N+](=O)[O-] [IRAK-1-4 Inhibitor I]
How it was run: (§1)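 K562 cells at 2×10^6 cells/mL were treated for 30 min with 10 μM compound, and aliquots were heated for 3 min over 48°C-58°C before pooling. Extraction used PBS with 0.5% NP-40 at 4°C, and soluble protein was the supernatant after 21,000xg for 90 min, measured by TMTpro 16plex LC-MS/MS with channel sums equalised. Thermal stability values, relative to control samples and from duplicates, are log2 fold changes.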

By UniProt entry, the sequences of proteins in these tests, tags left out. Where a name states a change or a piece, a line headed by the entry shows the natural chain unless it says otherwise.
UniProt Q49AH0, whole entry, looked up: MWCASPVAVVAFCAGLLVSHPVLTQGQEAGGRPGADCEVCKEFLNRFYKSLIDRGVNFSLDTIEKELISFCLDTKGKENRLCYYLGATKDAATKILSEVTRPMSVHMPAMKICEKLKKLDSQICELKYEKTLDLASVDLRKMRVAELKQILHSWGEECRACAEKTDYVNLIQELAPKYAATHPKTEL
UniProt Q9UKI2, whole entry, looked up: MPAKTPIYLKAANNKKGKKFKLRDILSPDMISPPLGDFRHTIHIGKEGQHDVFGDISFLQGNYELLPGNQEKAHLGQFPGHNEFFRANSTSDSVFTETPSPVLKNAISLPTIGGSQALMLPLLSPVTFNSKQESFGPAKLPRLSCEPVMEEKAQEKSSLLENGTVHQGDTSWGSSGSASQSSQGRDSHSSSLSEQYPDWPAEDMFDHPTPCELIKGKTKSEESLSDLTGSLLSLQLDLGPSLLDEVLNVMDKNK
UniProt P49918: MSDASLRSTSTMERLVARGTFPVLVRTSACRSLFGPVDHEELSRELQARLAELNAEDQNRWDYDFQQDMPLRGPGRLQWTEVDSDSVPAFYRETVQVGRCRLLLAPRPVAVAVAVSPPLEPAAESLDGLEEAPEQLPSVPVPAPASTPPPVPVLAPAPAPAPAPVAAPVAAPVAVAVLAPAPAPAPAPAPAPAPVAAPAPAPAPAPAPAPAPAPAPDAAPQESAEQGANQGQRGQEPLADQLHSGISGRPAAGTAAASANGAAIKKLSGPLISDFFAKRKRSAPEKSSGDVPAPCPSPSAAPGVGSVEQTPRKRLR
UniProt Q53HL2: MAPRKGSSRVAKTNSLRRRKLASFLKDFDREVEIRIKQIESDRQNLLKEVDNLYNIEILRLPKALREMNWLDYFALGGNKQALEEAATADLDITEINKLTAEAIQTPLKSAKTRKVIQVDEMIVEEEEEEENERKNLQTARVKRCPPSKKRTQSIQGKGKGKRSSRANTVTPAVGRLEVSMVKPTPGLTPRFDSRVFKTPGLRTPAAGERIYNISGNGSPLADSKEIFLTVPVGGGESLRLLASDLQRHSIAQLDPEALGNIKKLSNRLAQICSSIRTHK
UniProt Q5SW79: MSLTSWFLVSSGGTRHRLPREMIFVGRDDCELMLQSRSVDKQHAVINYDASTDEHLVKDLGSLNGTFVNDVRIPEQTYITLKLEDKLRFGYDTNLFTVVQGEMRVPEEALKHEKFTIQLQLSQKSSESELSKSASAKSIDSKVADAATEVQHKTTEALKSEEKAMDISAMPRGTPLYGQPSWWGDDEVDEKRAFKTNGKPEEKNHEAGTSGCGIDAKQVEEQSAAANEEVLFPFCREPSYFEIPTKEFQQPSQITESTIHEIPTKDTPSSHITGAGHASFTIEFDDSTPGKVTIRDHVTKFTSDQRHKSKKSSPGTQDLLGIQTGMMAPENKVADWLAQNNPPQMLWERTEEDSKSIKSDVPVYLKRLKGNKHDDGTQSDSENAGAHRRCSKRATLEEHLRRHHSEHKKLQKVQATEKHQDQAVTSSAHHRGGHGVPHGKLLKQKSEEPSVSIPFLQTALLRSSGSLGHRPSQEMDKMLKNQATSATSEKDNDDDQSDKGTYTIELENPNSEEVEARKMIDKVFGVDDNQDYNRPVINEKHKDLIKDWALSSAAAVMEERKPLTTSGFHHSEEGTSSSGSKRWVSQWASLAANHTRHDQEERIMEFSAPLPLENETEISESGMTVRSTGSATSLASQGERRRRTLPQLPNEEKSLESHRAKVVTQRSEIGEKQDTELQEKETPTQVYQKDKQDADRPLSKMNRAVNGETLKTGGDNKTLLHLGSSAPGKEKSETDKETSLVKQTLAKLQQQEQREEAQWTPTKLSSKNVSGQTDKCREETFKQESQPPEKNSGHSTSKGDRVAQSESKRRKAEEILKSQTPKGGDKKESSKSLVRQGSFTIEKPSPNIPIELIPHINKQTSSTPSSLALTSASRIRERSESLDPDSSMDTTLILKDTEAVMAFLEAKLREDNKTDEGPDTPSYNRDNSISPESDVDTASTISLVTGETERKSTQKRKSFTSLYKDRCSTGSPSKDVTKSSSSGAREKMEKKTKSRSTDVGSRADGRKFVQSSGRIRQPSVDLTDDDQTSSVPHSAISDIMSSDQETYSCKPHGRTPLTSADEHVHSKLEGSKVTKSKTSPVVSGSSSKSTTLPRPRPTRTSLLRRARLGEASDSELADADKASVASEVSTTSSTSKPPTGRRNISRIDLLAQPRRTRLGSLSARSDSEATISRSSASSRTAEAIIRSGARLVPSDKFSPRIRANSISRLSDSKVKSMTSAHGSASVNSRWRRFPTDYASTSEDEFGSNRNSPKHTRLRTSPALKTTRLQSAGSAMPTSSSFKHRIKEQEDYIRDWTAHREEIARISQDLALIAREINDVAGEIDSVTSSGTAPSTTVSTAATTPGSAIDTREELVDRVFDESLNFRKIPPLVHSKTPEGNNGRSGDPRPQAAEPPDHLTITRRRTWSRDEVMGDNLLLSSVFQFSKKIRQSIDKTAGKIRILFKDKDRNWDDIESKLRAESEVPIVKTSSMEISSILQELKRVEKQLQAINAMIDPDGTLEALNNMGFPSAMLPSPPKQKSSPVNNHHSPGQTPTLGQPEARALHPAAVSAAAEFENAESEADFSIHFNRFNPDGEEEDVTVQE
UniProt O14646: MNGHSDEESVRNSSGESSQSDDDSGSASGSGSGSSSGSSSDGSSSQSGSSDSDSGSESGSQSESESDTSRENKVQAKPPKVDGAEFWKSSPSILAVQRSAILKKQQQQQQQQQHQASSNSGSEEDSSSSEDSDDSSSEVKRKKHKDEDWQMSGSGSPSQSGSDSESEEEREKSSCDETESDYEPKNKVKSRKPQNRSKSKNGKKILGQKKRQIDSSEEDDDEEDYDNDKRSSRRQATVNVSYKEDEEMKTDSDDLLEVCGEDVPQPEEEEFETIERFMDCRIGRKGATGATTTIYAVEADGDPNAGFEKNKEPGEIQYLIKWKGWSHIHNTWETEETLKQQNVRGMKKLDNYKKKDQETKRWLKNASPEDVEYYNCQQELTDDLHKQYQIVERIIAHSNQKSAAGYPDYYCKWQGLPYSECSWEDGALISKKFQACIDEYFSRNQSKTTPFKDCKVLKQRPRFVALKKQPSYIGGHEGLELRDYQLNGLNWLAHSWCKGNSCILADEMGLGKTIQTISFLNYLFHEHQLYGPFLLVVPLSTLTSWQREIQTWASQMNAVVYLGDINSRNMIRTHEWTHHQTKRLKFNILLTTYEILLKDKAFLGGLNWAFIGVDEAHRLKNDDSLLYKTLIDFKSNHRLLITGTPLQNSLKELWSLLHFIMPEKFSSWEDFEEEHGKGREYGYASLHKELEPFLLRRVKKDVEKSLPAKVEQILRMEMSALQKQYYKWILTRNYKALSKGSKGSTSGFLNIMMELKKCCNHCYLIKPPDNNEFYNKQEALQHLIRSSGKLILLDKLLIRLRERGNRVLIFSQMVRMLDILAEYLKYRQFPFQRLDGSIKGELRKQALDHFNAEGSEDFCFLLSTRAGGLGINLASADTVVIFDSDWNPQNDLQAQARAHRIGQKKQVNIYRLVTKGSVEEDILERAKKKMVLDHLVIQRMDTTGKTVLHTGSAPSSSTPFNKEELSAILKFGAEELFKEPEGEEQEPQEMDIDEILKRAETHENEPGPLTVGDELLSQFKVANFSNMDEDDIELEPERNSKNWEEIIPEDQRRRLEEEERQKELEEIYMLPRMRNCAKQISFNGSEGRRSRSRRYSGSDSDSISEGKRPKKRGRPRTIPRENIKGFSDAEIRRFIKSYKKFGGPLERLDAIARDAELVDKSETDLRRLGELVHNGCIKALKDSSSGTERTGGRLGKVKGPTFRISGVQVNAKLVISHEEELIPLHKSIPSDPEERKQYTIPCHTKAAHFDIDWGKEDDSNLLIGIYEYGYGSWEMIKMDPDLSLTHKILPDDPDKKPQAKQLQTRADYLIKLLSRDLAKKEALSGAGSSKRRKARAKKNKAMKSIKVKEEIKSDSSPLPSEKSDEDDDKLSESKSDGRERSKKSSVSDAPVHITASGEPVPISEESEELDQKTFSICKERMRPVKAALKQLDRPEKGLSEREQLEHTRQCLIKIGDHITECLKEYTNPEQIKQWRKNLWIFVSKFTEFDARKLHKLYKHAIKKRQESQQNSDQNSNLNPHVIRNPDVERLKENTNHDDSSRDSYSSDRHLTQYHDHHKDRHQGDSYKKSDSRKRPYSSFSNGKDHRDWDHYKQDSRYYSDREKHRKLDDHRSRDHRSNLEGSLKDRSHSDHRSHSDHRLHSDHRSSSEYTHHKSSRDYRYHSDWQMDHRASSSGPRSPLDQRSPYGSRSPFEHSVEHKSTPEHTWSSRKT
UniProt Q96HQ2: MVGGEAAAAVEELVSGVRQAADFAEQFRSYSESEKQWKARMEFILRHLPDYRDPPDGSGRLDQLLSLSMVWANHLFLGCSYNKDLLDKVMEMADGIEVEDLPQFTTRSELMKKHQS
UniProt P53567: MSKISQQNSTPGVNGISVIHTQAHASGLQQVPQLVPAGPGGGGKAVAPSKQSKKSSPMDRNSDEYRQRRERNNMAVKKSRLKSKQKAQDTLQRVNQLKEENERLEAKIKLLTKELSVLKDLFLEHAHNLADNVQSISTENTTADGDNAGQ
UniProt Q99741: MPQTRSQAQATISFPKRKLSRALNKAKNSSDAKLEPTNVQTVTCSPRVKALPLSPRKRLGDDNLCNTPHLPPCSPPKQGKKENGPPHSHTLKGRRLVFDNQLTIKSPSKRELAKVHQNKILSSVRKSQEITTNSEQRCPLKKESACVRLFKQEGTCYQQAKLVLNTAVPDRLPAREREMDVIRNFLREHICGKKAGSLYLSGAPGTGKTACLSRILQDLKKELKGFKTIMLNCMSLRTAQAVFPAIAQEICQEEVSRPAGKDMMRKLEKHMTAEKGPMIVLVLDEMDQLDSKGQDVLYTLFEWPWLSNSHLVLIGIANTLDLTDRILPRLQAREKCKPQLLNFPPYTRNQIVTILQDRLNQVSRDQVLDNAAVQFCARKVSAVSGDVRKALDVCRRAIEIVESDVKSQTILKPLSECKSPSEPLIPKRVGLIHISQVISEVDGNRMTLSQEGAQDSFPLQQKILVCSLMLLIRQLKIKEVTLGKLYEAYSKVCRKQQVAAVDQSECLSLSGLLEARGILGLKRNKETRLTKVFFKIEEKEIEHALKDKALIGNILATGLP
UniProt Q9H211: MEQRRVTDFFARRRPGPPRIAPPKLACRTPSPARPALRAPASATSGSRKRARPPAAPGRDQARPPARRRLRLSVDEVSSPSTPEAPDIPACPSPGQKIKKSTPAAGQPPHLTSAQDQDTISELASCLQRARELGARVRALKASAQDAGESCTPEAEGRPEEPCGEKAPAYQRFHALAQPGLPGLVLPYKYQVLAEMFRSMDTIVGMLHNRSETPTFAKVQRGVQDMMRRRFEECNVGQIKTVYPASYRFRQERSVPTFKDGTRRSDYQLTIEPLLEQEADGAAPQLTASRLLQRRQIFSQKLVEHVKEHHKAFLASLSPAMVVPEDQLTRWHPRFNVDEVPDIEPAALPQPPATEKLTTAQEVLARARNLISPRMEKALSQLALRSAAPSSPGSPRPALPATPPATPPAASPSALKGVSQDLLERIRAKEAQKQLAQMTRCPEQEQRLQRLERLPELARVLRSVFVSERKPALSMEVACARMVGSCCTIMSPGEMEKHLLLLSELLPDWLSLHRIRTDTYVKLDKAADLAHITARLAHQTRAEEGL
UniProt P00751, whole entry, looked up: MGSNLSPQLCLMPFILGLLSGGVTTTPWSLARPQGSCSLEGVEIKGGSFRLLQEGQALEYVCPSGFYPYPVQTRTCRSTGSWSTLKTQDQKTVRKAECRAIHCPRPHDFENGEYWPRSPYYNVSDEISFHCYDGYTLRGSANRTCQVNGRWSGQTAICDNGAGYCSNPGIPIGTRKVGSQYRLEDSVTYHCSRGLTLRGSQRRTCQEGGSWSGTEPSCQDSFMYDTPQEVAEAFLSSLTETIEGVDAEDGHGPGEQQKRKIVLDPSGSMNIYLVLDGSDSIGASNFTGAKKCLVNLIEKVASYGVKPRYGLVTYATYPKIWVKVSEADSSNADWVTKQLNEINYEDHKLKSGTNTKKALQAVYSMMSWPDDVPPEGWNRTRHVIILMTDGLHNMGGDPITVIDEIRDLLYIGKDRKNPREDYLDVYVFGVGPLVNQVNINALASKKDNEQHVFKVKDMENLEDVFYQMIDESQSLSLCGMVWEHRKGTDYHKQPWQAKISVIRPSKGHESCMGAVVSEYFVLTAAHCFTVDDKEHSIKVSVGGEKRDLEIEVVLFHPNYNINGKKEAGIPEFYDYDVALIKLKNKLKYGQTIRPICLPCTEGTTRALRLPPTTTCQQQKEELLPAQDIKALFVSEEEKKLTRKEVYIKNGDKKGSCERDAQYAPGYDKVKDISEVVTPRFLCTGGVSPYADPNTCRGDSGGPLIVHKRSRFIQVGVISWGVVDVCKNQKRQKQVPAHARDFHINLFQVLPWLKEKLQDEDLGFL
UniProt A8MT69: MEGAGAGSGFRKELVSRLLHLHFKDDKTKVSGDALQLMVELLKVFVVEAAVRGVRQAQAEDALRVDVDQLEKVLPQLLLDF

pinometostat = compound: CC(C)N(C[C@H]1O[C@@H](n2cnc3c(N)ncnc32)[C@H](O)[C@@H]1O)[C@H]1C[C@@H](CCc2nc3cc(C(C)(C)C)ccc3[nH]2)C1 [pinometostat]
How it was run: as §1

erlotinib = compound: C#Cc1cccc(Nc2ncnc3cc(OCCOC)c(OCCOC)cc23)c1 [erlotinib]
How it was run: as §1

[1] = compound: C1=CC(=C(C=C1Cl)C2=NC3=NC=CN=C3C(=N2)NC4=CC=NC=C4)F
How it was run: as §1

[2] = compound: C1=CC(=CC=C1C2=NC3=C(N2)C=C(C=C3)C(=O)N)OC4=CC=C(C=C4)Cl
How it was run: as §1

[3] = compound: CC(C)(O)CC(=O)NCCn1ccc2ncnc(Nc3ccc(Oc4cccc(C(F)(F)F)c4)c(Cl)c3)c21
How it was run: as §1

[4] = compound: CC(C)C1=C2N=C(C=C(N2N=C1)NCC3=CC=CC=C3)NCCCCCCN
How it was run: as §1

[5] = compound: C1=CC2=NC=CN=C2C=C1/C=C/3\C(=O)NC(=O)S3
How it was run: as §1

[6] = compound: C1=CC=C(C=C1)C2=NC(=C(N2)C3=CC=NC=C3)C4=CC(=C(C=C4)Cl)O
How it was run: as §1

ibrutinib = compound: C=CC(=O)N1CCC[C@@H](n2nc(-c3ccc(Oc4ccccc4)cc3)c3c(N)ncnc32)C1 [ibrutinib]
How it was run: as §1

ralimetinib = compound: CC(C)(C)Cn1c(N)nc2ccc(-c3[nH]c(C(C)(C)C)nc3-c3ccc(F)cc3)nc21 [ralimetinib]
How it was run: as §1

[7] = compound: CC(C)C[C@@H](C=O)NC(=O)[C@H](CC(C)C)NC(=O)[C@H](CC(C)C)NC(=O)OCc1ccccc1
How it was run: as §1

[8] = compound: C1CCN(C1)C(=O)NC2=CC=CC(=C2)NC3=NC=C(C(=N3)NCCC4=CN=CN4)Br
How it was run: as §1

[9] = compound: C1CN(CCC1(CC2=CC=C(C=C2)Cl)N)C3=NC=NC4=C3C=CN4
How it was run: as §1

[10] = compound: CC1=C(C2=C(C=C1)C(=O)C3=CC=CC=C3N2CCCN)C
How it was run: as §1

[11] = compound: CC1=C(C(CC(=O)N1)C2=CC=C(C=C2)C(F)(F)F)C(=O)NC3=C(C=C4C(=C3)C=NN4)F
How it was run: as §1

[12] = compound: C/C(=N\NC(=O)C1=CC(=CC=C1)S(=O)(=O)N2CCOCC2)/C3=C(C=CC(=C3)Cl)O
How it was run: as §1

[13] = compound: C1=CC2=C(C=CC(=C2)/C=C\3/C(=O)NC(=NCC4=CC=CS4)S3)N=C1
How it was run: as §1

[14] = compound: C1=CC=C2C(=C1)C3=NNC4=CC=CC(=C43)C2=O
How it was run: as §1

[15] = compound: CC(=O)c1cnc2ccc(-c3cc(Cl)c(O)c(Cl)c3)nc2c1N[C@H]1CC[C@H](CN(C)C)CC1
How it was run: as §1

Measured: log2 fold change

CDNF (UniProt Q49AH0)
inactive: IRAK-1-4 Inhibitor I 0.143 | pinometostat -0.083

CDC42EP3 (UniProt Q9UKI2)
inactive: erlotinib -0.068 | [1] -0.01 | [2] 0.305 | [3] 0.006 | [4] -0.342

CDKN1C (UniProt P49918)
inactive: [1] -0.079 | [5] -0.063 | [6] -0.001 | ibrutinib 0.026 | ralimetinib -0.131 | [3] -0.029 | [7] 0.155

CDCA8 (UniProt Q53HL2)
inactive: [6] -0.038 | ralimetinib 0.071 | [7] 0.246

CHFR (UniProt Q96EP1)
inactive: [1] 0.092 | [8] -0.093 | [9] 0.047 | IRAK-1-4 Inhibitor I 0.028 | [3] -0.04 | pinometostat 0.096 | [10] -0.038

CDH2 (UniProt P19022)
inactive: IRAK-1-4 Inhibitor I -0.055 | pinometostat -0.012

CEP152 (UniProt O94986)
inactive: erlotinib 0.404 | [2] 0.061 | [5] -0.015 | [6] -0.166 | [8] 0.073 | [9] 0.01 | IRAK-1-4 Inhibitor I 0.132 | ibrutinib 0.161 | ralimetinib -0.216 | [4] 0.027 | [7] 0.074 | pinometostat -0.031 | [11] 0.136 | [10] -0.186

CEP170 isoform 3 (UniProt Q5SW79)
inactive: erlotinib -0.002 | [2] 0.026 | [5] -0.344 | IRAK-1-4 Inhibitor I 0.161 | ibrutinib 0.002 | [4] -0.031 | pinometostat 0.461

CEBPZ (UniProt Q03701)
inactive: [8] -0.32 | [9] -0.537 | [10] 0.107

CHD1 (UniProt O14646)
inactive: [12] 0.132 | [1] -0.44 | [13] 0.042 | [14] -0.023 | [15] -0.115 | [3] -0.032

CDH5 (UniProt P33151)
inactive: erlotinib -0.227 | [1] 0.086 | [2] -0.052 | [3] 0.148 | [4] 0.2

CDK5RAP2 (UniProt Q96SN8)
inactive: [1] -0.138 | [5] -0.06 | [8] 0.014 | [9] -0.13 | IRAK-1-4 Inhibitor I -0.046 | ibrutinib -0.245 | [3] 0.109 | pinometostat 0.103 | [10] -0.038

CFAP58 (UniProt Q5T655)
inactive: [6] 0.047 | ralimetinib -0.04 | [7] -0.035

CDKN2AIPNL (UniProt Q96HQ2)
inactive: [11] 0.045

CEBPG (UniProt P53567)
inactive: [12] -0.4 | [13] 0.022 | [6] -0.318 | [14] -0.019 | [15] 0.026 | ralimetinib 0.018 | [7] -0.092 | [11] -0.088

CFL1 (UniProt E9PP50)
inactive: erlotinib 0.325 | [2] -0.151 | [4] 0.16 | [11] -0.092

CEP120 (UniProt Q8N960)
inactive: [12] -0.154 | [1] 0.143 | [13] 0.24 | [5] 0.006 | [6] 0.093 | [14] 0.055 | [8] 0.033 | [9] 0.346 | IRAK-1-4 Inhibitor I 0.036 | ibrutinib -0.004 | [15] -0.003 | ralimetinib 0.151 | [3] -0.302 | [7] -0.071 | pinometostat 0.002 | [10] 0.104

CEP83 (UniProt Q9Y592)
inactive: [5] -0.003 | [6] 0.09 | IRAK-1-4 Inhibitor I 0.138 | ibrutinib 0.064 | ralimetinib 0.05 | [7] 0.222 | pinometostat 0.131

CFAP47 (UniProt Q6ZTR5)
inactive: [1] 0.053 | [13] 0.355 | [5] -0.123 | [14] 0.132 | ibrutinib -0.109 | [15] 0.153 | [3] 0.006
active: [12] -0.734

CENPV (UniProt Q7Z7K6)
inactive: [1] -0.51 | [6] -0.032 | ralimetinib 0.269 | [3] 0.323 | [7] 0.132

CEP170B (UniProt Q9Y4F5)
inactive: [12] 0.036 | [1] -0.288 | [13] 0.01 | [5] -0.206 | [6] -0.018 | [14] -0.098 | IRAK-1-4 Inhibitor I -0.125 | ibrutinib -0.001 | [15] -0.251 | ralimetinib 0.001 | [3] -0.017 | [7] -0.009 | pinometostat 0.307

CDC45 isoform 3 (UniProt O75419)
inactive: [12] 0.12 | [1] -0.16 | [13] -0.099 | [6] -0.065 | [14] 0.257 | [8] -0.037 | [9] -0.008 | IRAK-1-4 Inhibitor I -0.216 | [15] -0.129 | ralimetinib 0.084 | [3] 0.014 | [7] 0.088 | pinometostat 0.31 | [11] 0.116 | [10] -0.2

CDC6 (UniProt Q99741)
inactive: [1] -0.284 | [3] 0.436

CEP85 (UniProt Q6P2H3)
inactive: [12] -0.192 | [13] 0.085 | [5] -0.117 | [6] 0.012 | [14] 0.069 | ibrutinib -0.29 | [15] 0.015 | ralimetinib -0.005 | [7] 0.021

CEP350 (UniProt Q5VT06)
inactive: [12] 0.175 | [1] -0.153 | [13] 0.06 | [6] 0.28 | [14] 0.009 | [8] -0.095 | [9] -0.298 | IRAK-1-4 Inhibitor I -0.163 | [15] 0.071 | ralimetinib -0.21 | [3] 0.057 | [7] -0.019 | pinometostat 0.565 | [11] -0.099 | [10] -0.002

CHMP2A (UniProt M0R1T5)
inactive: [12] 0.073 | [13] -0.258 | [14] -0.107 | [8] -0.187 | [9] 0.1 | [15] 0.189 | [10] 0.093

Retrieved one by one from above (2):
CEP85 (UniProt Q6P2H3)
inactive: [12] -0.192 | [13] 0.085 | [5] -0.117 | [6] 0.012 | [14] 0.069 | ibrutinib -0.29 | [15] 0.015 | ralimetinib -0.005 | [7] 0.021

CDC6 (UniProt Q99741)
inactive: [1] -0.284 | [3] 0.436

Following part.

CDT1 (UniProt Q9H211)
inactive: [1] -0.179 | [3] 0.143

CFB (UniProt P00751)
inactive: erlotinib -0.184 | [2] 0.078 | [5] -0.088 | [6] 0.104 | ibrutinib 0.234 | ralimetinib 0.08 | [4] 0.178 | [7] 0.053 | [11] -0.099

CEP128 (UniProt Q6ZU80)
inactive: [12] -0.163 | [13] 0.199 | [5] 0.158 | [14] -0.037 | [8] 0.141 | [9] -0.003 | IRAK-1-4 Inhibitor I -0.149 | ibrutinib -0.055 | [15] -0.022 | pinometostat 0.012 | [10] 0.1

CDC42BPG (UniProt Q6DT37)
inactive: erlotinib 0.082 | [2] -0.079 | [4] 0.146

CENPX (UniProt A8MT69)
inactive: erlotinib 0.242 | [2] -0.099 | [4] -0.222

CENPM (UniProt Q9NSP4)
inactive: erlotinib -0.186 | [2] 0.152 | [4] 0.015

CHCHD5 (UniProt Q9BSY4)
inactive: erlotinib 0.038 | [2] 0.115 | [5] 0.086 | [6] -0.174 | IRAK-1-4 Inhibitor I -0.17 | ibrutinib 0.048 | ralimetinib -0.098 | [4] 0.182 | [7] -0.084 | pinometostat 0.131 | [11] 0.036

CEP41 (UniProt Q9BYV8)
inactive: erlotinib -0.087 | [2] 0.127 | IRAK-1-4 Inhibitor I 0.016 | [4] -0.307 | pinometostat 0.012

CDSN (UniProt Q15517)
inactive: [12] -0.043 | [1] 0.144 | [13] 0.377 | [5] -0.362 | [14] -0.373 | [8] -0.129 | [9] -0.384 | IRAK-1-4 Inhibitor I 0.18 | ibrutinib 0.304 | [15] -0.261 | [3] 0.294 | pinometostat -0.032 | [11] -0.623 | [10] 1.26

From the supplement of paper PMC10849652
